Data from PubChem BioAssay AID1487 (National Center for Advancing Translational Sciences (NCATS), 2009).
Some of the results follow. The main result of the screen is listed elsewhere. These columns were measured beside it and carry no call. Compounds called inactive in the main read-out are mostly missing here. Words in brackets tell the shape of the fitted curve; partial curves, single points and poor fits give uncertain potencies.

Assay: qHTS Assay for Modulators of Lamin A Splicing
Conditions: HeLa LMNA splicing GFP/RFP minigene ratio, 48 h
Procedure, shortened: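 S3 HeLa cells stably expressing lamin A-EGFP splicing minigene plus DsRed2, 600 cells/well, 48 h compound exposure at 37C. Laser-scanning cytometry; analysed as GFP (500-530 nm)/RFP (575-640 nm) total intensity ratio; 0.5% DMSO vehicle.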

[1] = measured here: GFP splicing reporter channel
[2] = measured here: RFP viability control channel

Compound | AC50 [1] | AC50 [2]
O=C(N/N=C/C(Br)=C\c1ccccc1)c1n[nH]c2c1CCC2 | 6.31 µM [falling, partial curve, poor fit] | 2.51 µM [falling, partial curve]
CC(c1nnc(Sc2nnnn2-c2ccccc2)n1-c1ccc(F)cc1)N(C)C (configuration not stated) | – | 10 µM [rising, partial curve]
O=C(Nc1ccc2ccccc2c1)c1cn(-c2ccccc2)nc1-c1cccs1 | 0.02 µM [rising, partial curve] | –
O=C(NCC1CCCO1)c1cc(S(=O)(=O)Nc2ccc(Br)cc2)ccc1Cl (configuration not stated) | – | 15.8 µM [rising, partial curve]
CCc1nc(SCc2nc3ccccc3[nH]2)c2oc3ccccc3c2n1 | – | 35.5 µM [rising, single point]
Cc1cc(C(=O)CSc2ccc(Cl)cc2)cc(C)c1OC(=S)N(C)C | – | 12.6 µM [rising, single point]
CCOC(=O)c1sc(=NC(=O)c2ccc(C)cc2)n(C)c1C | – | 8.91 µM [falling, partial curve]
COc1ccc(-c2csc(Cc3nnc4n3CCCCC4)n2)cc1OC | 15.8 µM [rising, single point] | –
COc1ccc2[nH]c(N=Nc3ccccc3C)c(O)c2c1 | 3.16 µM [rising, single point] | 3.55 µM [rising, single point]
Cc1onc(-c2ccccc2Cl)c1C(=O)N1CCN(C(=O)c2ccco2)CC1 | 6.31 µM [rising, single point] | 5.62 µM [rising, single point]
COc1ccc2[nH]cc(CCNc3cc(-c4ccc5c(c4)OCO5)ncn3)c2c1 | 11.2 µM [falling, partial curve, poor fit] | 12.6 µM [falling, single point]
CCCCCOc1ccc(C2C(C(C)=O)=C(C)Nc3ncnn32)cc1OC (configuration not stated) | – | 12.6 µM [rising, single point]
CC(=O)Cc1nsc(NC(=O)c2ccc(-c3ccc(F)cc3)o2)n1 | 10 µM [falling, partial curve, poor fit] | –
Cc1ccc(/C=C/C(=O)N2CC(C)CC(C)C2)o1 (configuration not stated) | – | 11.2 µM [falling, single point]
Cc1ccc(-c2cnc(SCC(=O)N3CCCc4ccccc43)n2C)cc1 | 31.6 µM [rising, single point] | 35.5 µM [rising, single point]
O=C(NCCC1=CCCCC1)C1CCC(CNc2nc(=S)[nH]c3ccccc23)CC1 (configuration not stated) | 35.5 µM [falling, single point] | 35.5 µM [falling, single point]

Single records, as listed above.
COc1ccc(-c2csc(Cc3nnc4n3CCCCC4)n2)cc1OC in the list: AC50 [1]: 15.8 µM [rising, single point]
O=C(NCCC1=CCCCC1)C1CCC(CNc2nc(=S)[nH]c3ccccc23)CC1 (configuration not stated) in the list: AC50 [1]: 35.5 µM [falling, single point]; AC50 [2]: 35.5 µM [falling, single point]
